The list shows only some results of the screen, not a fair sample: it gathers some chemical classes. Other doses and runs of a compound may be missing. T/C: endpoint of the treated group in % of that of the vehicle group. Some doses have a count of surviving animals in place of a T/C: the source files T/C as zero there, which appears to mark a toxic dose or a test without result, not a measured value. Some survivor counts are full or nearly so, which does not show that the dose was tolerated: survival well below the control is almost never listed, so the zero probably covers shortened survival too. Counts of survivors are from the toxicity check (mostly the fifth day) where no day follows; animals may have died later. Schedule codes are those of the source, read here as Q, the interval in days (D) or hours (H), X, the number of doses. Some metal complexes and salts are drawn in pieces, as in the source, so charges may not balance. Some entries hold several experiments; the values are given in rising order. For survival time, the PubChem record calls one and a half times the control and up active, and a quarter to a half above the control has no call in these data; cut-offs in other NCI protocols can differ. Counts like (3×) stand for listed records that agree. Some T/C values are marked as having no survivor count here; that says nothing about deaths at the dose. Some T/C values are followed by the survivors on the day toxicity was checked, most often the fifth; where neither a count nor a note follows, no animal had died by that day.
Test system: P388 leukemia ip, CD2F1 mice, survival T/C
Assay: NCI In Vivo Anticancer Drug Screen. Data for tumor model P388 Leukemia (intraperitoneal) in CD2F1 (CDF1) mice
Conditions: T/C endpoint: median survival time, higher T/C = longer survival
[1] = dose: 50.0 mg/kg/injection, schedule: Q01DX009 (ip), vehicle: Klucel (hydroxypropylcellulose) (HPC)
[2] = dose: 100.0 mg/kg/injection, schedule: Q01DX009 (ip), vehicle: Klucel (hydroxypropylcellulose) (HPC)
[3] = dose: 200.0 mg/kg/injection, schedule: Q01DX009 (ip), vehicle: Klucel (hydroxypropylcellulose) (HPC)
[4] = dose: 100.0 mg/kg/injection, schedule: Q01DX001 (ip), vehicle: saline with Tween-80
[5] = dose: 200.0 mg/kg/injection, schedule: Q01DX001 (ip), vehicle: saline with Tween-80
[6] = dose: 400.0 mg/kg/injection, schedule: Q01DX001 (ip), vehicle: saline with Tween-80
[7] = dose: 12.5 mg/kg/injection, schedule: Q01DX009 (ip), vehicle: saline
[8] = dose: 50.0 mg/kg/injection, schedule: Q01DX009 (ip), vehicle: saline
[9] = dose: 100.0 mg/kg/injection, schedule: Q01DX009 (ip), vehicle: saline
[10] = dose: 200.0 mg/kg/injection, schedule: Q01DX009 (ip), vehicle: saline
[11] = dose: 60.0 mg/kg/injection, schedule: Q01DX005 (ip), vehicle: saline
[12] = dose: 120.0 mg/kg/injection, schedule: Q01DX005 (ip), vehicle: saline
[13] = dose: 240.0 mg/kg/injection, schedule: Q01DX005 (ip), vehicle: saline
[14] = dose: 400.0 mg/kg/injection, schedule: Q01DX009 (ip), vehicle: saline with Tween-80

[N-]=[N+]=NC(=O)CCCCC(=O)N=[N+]=[N-]
T/C [1]: 109 % of control [5 of 6 alive] | T/C [2]: 89 % of control | survivor count [3]: 4 of 6

O=C(O)Cc1c([N+](=O)[O-])cc([N+](=O)[O-])cc1[N+](=O)[O-]
T/C (dose: 100.0 mg/kg/injection, schedule: Q01DX001 (ip), vehicle: saline): 100 % of control | T/C (dose: 200.0 mg/kg/injection, schedule: Q01DX001 (ip), vehicle: saline): 104 % of control [4 of 6 alive] | survivor count (dose: 400.0 mg/kg/injection, schedule: Q01DX001 (ip), vehicle: saline): 3 of 6

CP1(OCC(F)(F)F)=NP(OCC(F)(F)F)(OCC(F)(F)F)=NP(OCC(F)(F)F)(OCC(F)(F)F)=N1 (stereo not given)
T/C (dose: 60.0 mg/kg/injection, schedule: Q01DX005 (ip), vehicle: Klucel (hydroxypropylcellulose) (HPC)): 96 % of control | T/C (dose: 120.0 mg/kg/injection, schedule: Q01DX005 (ip), vehicle: Klucel (hydroxypropylcellulose) (HPC)): 100 % of control | T/C (dose: 240.0 mg/kg/injection, schedule: Q01DX005 (ip), vehicle: Klucel (hydroxypropylcellulose) (HPC)): 96 % of control

CCOP(=O)(O)CC.[V]
T/C [2]: 90 % of control [survivor count not shown] | T/C [3]: 94 % of control [survivor count not shown]

COP(C)(=O)O.[Y]
T/C (dose: 25.0 mg/kg/injection, schedule: Q01DX001 (ip), vehicle: saline with Tween-80): 102 % of control [survivor count not shown] | T/C (dose: 50.0 mg/kg/injection, schedule: Q01DX001 (ip), vehicle: saline with Tween-80): 94 % of control [survivor count not shown] | T/C [4]: 100 % of control [survivor count not shown] | T/C [5]: 92 % of control [survivor count not shown] | T/C [6]: 100 % of control [survivor count not shown]

O=C1c2c([N+](=O)[O-])cc([N+](=O)[O-])c(O)c2C(=O)c2c(O)c([N+](=O)[O-])cc([N+](=O)[O-])c21
T/C (dose: 12.5 mg/kg/injection, schedule: Q01DX005 (ip), vehicle: saline with Tween-80): 99 % of control | T/C (dose: 25.0 mg/kg/injection, schedule: Q01DX005 (ip), vehicle: saline with Tween-80): 110 % of control | T/C (dose: 50.0 mg/kg/injection, schedule: Q01DX005 (ip), vehicle: saline with Tween-80): 110 % of control (2×) | T/C (dose: 100.0 mg/kg/injection, schedule: Q01DX005 (ip), vehicle: saline with Tween-80): 115 % of control | survivor count (dose: 200.0 mg/kg/injection, schedule: Q01DX005 (ip), vehicle: saline with Tween-80): 3 of 5

O=[N+]([O-])c1ccc(Sc2ccnc(Sc3ccc([N+](=O)[O-])cc3[N+](=O)[O-])n2)c([N+](=O)[O-])c1
T/C (dose: 50.0 mg/kg/injection, schedule: Q01DX009 (ip), vehicle: suspension in saline): 91 % of control | T/C (dose: 100.0 mg/kg/injection, schedule: Q01DX009 (ip), vehicle: suspension in saline): 95 % of control | T/C (dose: 200.0 mg/kg/injection, schedule: Q01DX009 (ip), vehicle: suspension in saline): 98 % of control [4 of 6 alive]

CCN(CCNCCCNCCSP(=O)(O)O)c1cccc(C)c1
T/C (dose: 1.5 mg/kg/injection, schedule: Q01DX009 (ip), vehicle: saline with Tween-80): 100 % of control | T/C (dose: 3.0 mg/kg/injection, schedule: Q01DX009 (ip), vehicle: saline with Tween-80): 104 % of control | T/C (dose: 6.0 mg/kg/injection, schedule: Q01DX009 (ip), vehicle: saline with Tween-80): 109 % of control

COC(=O)C1=CSCC(Cl)C1=O (stereo not given)
T/C (dose: 3.12 mg/kg/injection, schedule: Q01DX005 (ip), vehicle: saline): 99 % of control | T/C (dose: 6.25 mg/kg/injection, schedule: Q01DX005 (ip), vehicle: saline): 115 % of control | T/C (dose: 12.5 mg/kg/injection, schedule: Q01DX005 (ip), vehicle: saline): 118 % of control | survivor count (dose: 50.0 mg/kg/injection, schedule: Q01DX005 (ip), vehicle: Klucel (hydroxypropylcellulose) (HPC)): 0 of 6 | survivor count (dose: 100.0 mg/kg/injection, schedule: Q01DX005 (ip), vehicle: Klucel (hydroxypropylcellulose) (HPC)): 0 of 6 | survivor count (dose: 200.0 mg/kg/injection, schedule: Q01DX005 (ip), vehicle: Klucel (hydroxypropylcellulose) (HPC)): 0 of 6

[Au].[C-]#N.[C-]#N
T/C (dose: 1.56 mg/kg/injection, schedule: Q01DX009 (ip), vehicle: saline): 122 % of control | T/C (dose: 3.13 mg/kg/injection, schedule: Q01DX009 (ip), vehicle: saline): 128 and 138 % of control | T/C (dose: 6.25 mg/kg/injection, schedule: Q01DX009 (ip), vehicle: saline): 135 [4 of 6 alive] and 150 % of control [4 of 6 alive] | survivor count [7]: 0 of 6 and 4 of 6 | survivor count [8]: 0 of 6 | survivor count [9]: 0 of 6 | survivor count [10]: 0 of 6

COP(OC)c1ccccc1P(OC)OC
T/C [11]: 101 % of control | T/C [12]: 119 % of control | T/C [13]: 105 % of control

CCC1COP(N(CC)CC)OC1 (stereo not given)
T/C [4]: 101 % of control | T/C [5]: 94 % of control | T/C [6]: 100 % of control

CCO[PH+]([O-])OCC.CCO[PH+]([O-])OCC.CCO[PH+]([O-])OCC.[Co+3].[Na+].c1cc[cH-]c1
T/C [7]: 100 % of control | T/C (dose: 25.0 mg/kg/injection, schedule: Q01DX009 (ip), vehicle: saline): 86 % of control | T/C [8]: 89 and 92 % of control | T/C [9]: 107 % of control [5 of 6 alive] | survivor count [10]: 0 of 6

NC(=O)Nc1ccc(N(CCCl)CCCl)cc1
T/C (dose: 0.78 mg/kg/injection, schedule: Q01DX009 (ip), vehicle: Klucel (hydroxypropylcellulose) (HPC)): 109 % of control | T/C (dose: 1.56 mg/kg/injection, schedule: Q01DX009 (ip), vehicle: Klucel (hydroxypropylcellulose) (HPC)): 108 % of control | T/C (dose: 3.12 mg/kg/injection, schedule: Q01DX009 (ip), vehicle: Klucel (hydroxypropylcellulose) (HPC)): 123 and 183 % of control | T/C (dose: 6.25 mg/kg/injection, schedule: Q01DX009 (ip), vehicle: Klucel (hydroxypropylcellulose) (HPC)): 125 and 183 % of control | T/C (dose: 12.5 mg/kg/injection, schedule: Q01DX009 (ip), vehicle: Klucel (hydroxypropylcellulose) (HPC)): 144 and 204 % of control | T/C (dose: 25.0 mg/kg/injection, schedule: Q01DX009 (ip), vehicle: Klucel (hydroxypropylcellulose) (HPC)): 97, 100, 110 % of control | survivor count [1]: 6 of 6 | survivor count [2]: 3 of 6 | survivor count [3]: 0 of 6

[N-]=[N+]=Nc1nc(N)nc(N=[N+]=[N-])n1
T/C (dose: 100.0 mg/kg/injection, schedule: Q01DX001 (ip), vehicle: Klucel (hydroxypropylcellulose) (HPC)): 97 % of control [survivor count not shown] | T/C (dose: 200.0 mg/kg/injection, schedule: Q01DX001 (ip), vehicle: Klucel (hydroxypropylcellulose) (HPC)): 98 % of control [survivor count not shown] | T/C (dose: 400.0 mg/kg/injection, schedule: Q01DX001 (ip), vehicle: Klucel (hydroxypropylcellulose) (HPC)): 96 % of control [survivor count not shown]

CN1N=C(c2ccccc2)N2P(=O)(c3ccccc3)N3C(c4ccccc4)=NN(C)P123N (stereo not given)
T/C [11]: 104 % of control | T/C [12]: 94 % of control [4 of 6 alive] | T/C [13]: 95 % of control

C1CC2COP(O1)O2 (stereo not given)
T/C [8]: 101 % of control | T/C [9]: 100 % of control | T/C [10]: 94 % of control

CCOP(=O)(NC(=S)NNc1ccccc1)OCC
T/C (dose: 25.0 mg/kg/injection, schedule: Q01DX009 (ip), vehicle: saline with Tween-80): 107 % of control | T/C (dose: 50.0 mg/kg/injection, schedule: Q01DX009 (ip), vehicle: saline with Tween-80): 99, 104, 113 % of control | T/C (dose: 100.0 mg/kg/injection, schedule: Q01DX009 (ip), vehicle: saline with Tween-80): 100, 107, 110 % of control | T/C (dose: 200.0 mg/kg/injection, schedule: Q01DX009 (ip), vehicle: saline with Tween-80): 100, 107, 120 % of control | T/C [14]: 111 % of control | survivor count [14]: 5 of 6
